Assay results: paper PMC11222469
No constants are given. Whether binding was seen depends on the method and setting. In cells and extracts the contact can be indirect. Some binding calls cover weakened binding; strength is not graded here. For part of these data: Where a sequence is shown, tags or fusion partners need not be part of it.

Columns and labels:
[1] = target: SMC1A (human (endogenous in HEK293T, MV4-11, HEL, HEK293)) (UniProt Q14683); assay: co-IP; alpha-SMC1A antibody (1-10 ug per IP) overnight at 4 C, Protein-G beads, NP-40 buffer; lysates of Cas9+ HEL cells with ROSA26- or DCAF15-targeting sgRNAs; also with cycloheximide, MG132, MLN4924, indisulam or PCI-34051; Western blot
[2] = target: SMC1A (human (endogenous in HEK293T, MV4-11, HEL, HEK293)) (UniProt Q14683); assay: co-IP; alpha-SMC1A antibody; lysates of HEK293 FLAG-HA-dTAG-DCAF15[Clone#1] cells, asynchronous or synchronized in G1/S, G2 or prometaphase, DMSO or dTAG-13 (100 nM) for final 6 h; Western blot
FLAG-SMC1A-WT (human) = FLAG-SMC1A-WT (human) (UniProt Q14683); assay: co-IP; interaction of SMC1A or CDCA5 mutants with DCAF15 and RAD21 (Supplementary Fig. 3f, 3g, 4e); cells and legends not shown

binding [1] | binding [2] | binding (FLAG-SMC1A-WT (human)) | Binder
binds |  |  | WAPL (protein, UniProt Q7Z5K2 1-1190) MTSRFGKTYSRKGGNGSSKFDEVFSNKRTTLSTKWGETTFMAKLGQKRPNFKPDIQEIPKKPKVEEESTGDPFGFDSDDESLPVSSKNLAQVKCSSYSESSEAAQLEEVTSVLEANSKISHVVVEDTVVSDKCFPLEDTLLGKEKSTNRIVEDDASISSCNKLITSDKVENFHEEHEKNSHHIHKNADDSTKKPNAETTVASEIKETNDTWNSQFGKRPESPSEISPIKGSVRTGLFEWDNDFEDIRSEDCILSLDSDPLLEMKDDDFKNRLENLNEAIEEDIVQSVLRPTNCRTYCRANKTKSSQGASNFDKLMDGTSQALAKANSESSKDGLNQAKKGGVSCGTSFRGTVGRTRDYTVLHPSCLSVCNVTIQDTMERSMDEFTASTPADLGEAGRLRKKADIATSKTTTRFRPSNTKSKKDVKLEFFGFEDHETGGDEGGSGSSNYKIKYFGFDDLSESEDDEDDDCQVERKTSKKRTKTAPSPSLQPPPESNDNSQDSQSGTNNAENLDFTEDLPGVPESVKKPINKQGDKSKENTRKIFSGPKRSPTKAVYNARHWNHPDSEELPGPPVVKPQSVTVRLSSKEPNQKDDGVFKAPAPPSKVIKTVTIPTQPYQDIVTALKCRREDKELYTVVQHVKHFNDVVEFGENQEFTDDIEYLLSGLKSTQPLNTRCLSVISLATKCAMPSFRMHLRAHGMVAMVFKTLDDSQHHQNLSLCTAALMYILSRDRLNMDLDRASLDLMIRLLELEQDASSAKLLNEKDMNKIKEKIRRLCETVHNKHLDLENITTGHLAMETLLSLTSKRAGDWFKEELRLLGGLDHIVDKVKECVDHLSRDEDEEKLVASLWGAERCLRVLESVTVHNPENQSYLIAYKDSQLIVSSAKALQHCEELIQQYNRAEDSICLADSKPLPHQNVTNHVGKAVEDCMRAIIGVLLNLTNDNEWGSTKTGEQDGLIGTALNCVLQVPKYLPQEQRFDIRVLGLGLLINLVEYSARNRHCLVNMETSCSFDSSICSGEGDDSLRIGGQVHAVQALVQLFLERERAAQLAESKTDELIKDAPTTQHDKSGEWQETSGEIQWVSTEKTDGTEEKHKKEEEDEELDLNKALQHAGKHMEDCIVASYTALLLGCLCQESPINVTTVREYLPEGDFSIMTEMLKKFLSFMNLTCAVGTTGQKSISRVIEYLEHC
binds | binds |  | PDS5A (protein, UniProt Q29RF7 1-1337) MDFTAQPKPATALCGVVSADGKIAYPPGVKEITDKITTDEMIKRLKMVVKTFMDMDQDSEDEKQQYLPLALHLASEFFLRNPNKDVRLLVACCLADIFRIYAPEAPYTSHDKLKDIFLFITRQLKGLEDTKSPQFNRYFYLLENLAWVKSYNICFELEDCNEIFIQLFRTLFSVINNSHNKKVQMHMLDLMSSIIMEGDGVTQELLDSILINLIPAHKNLNKQSFDLAKVLLKRTVQTIEACIANFFNQVLVLGRSSVSDLSEHVFDLIQELFAIDPHLLLSVMPQLEFKLKSNDGEERLAVVRLLAKLFGSKDSDLATQNRPLWQCFLGRFNDIHVPVRLESVKFASHCLMNHPDLAKDLTEYLKVRSHDPEEAIRHDVIVTIITAAKRDLALVNDQLLGFVRERTLDKRWRVRKEAMMGLAQLYKKYCLHGEAGKEAAEKVSWIKDKLLHIYYQNSIDDKLLVEKIFAQYLVPHNLETEERMKCLYYLYASLDPNAVKALNEMWKCQNMLRSHVRELLDLHKQPTSEANCSAMFGKLMTIAKNLPDPGKAQDFVKKFNQVLGDDEKLRSQLELLISPTCSCKQADICVREIARKLANPKQPTNPFLEMVKFLLERIAPVHIDSEAISALVKLMNKSIEGTADDEEEGVSPDTAIRSGLELLKVLSFTHPTSFHSAETYESLLQCLRMEDDKVAEAAIQIFRNTGHKIETDLPQIRSTLIPILHQKAKRGTPHQAKQAVHCIHAIFTNKEVQLAQIFEPLSRSLNADVPEQLITPLVSLGHISMLAPDQFASPMKSVVANFIVKDLLMNDRSTGEKNGKLWSPDEEVSPEVLAKVQAIKLLVRWLLGMKNNQSKSANSTLRLLSAMLVSEGDLTEQKRISKSDMSRLRLAAGSAIMKLAQEPCYHEIITPEQFQLCALVINDECYQVRQIFAQKLHKALVKLLLPLEYMAIFALCAKDPVKERRAHARQCLLKNISIRREYIKQNPMATEKLLSLLPEYVVPYMIHLLAHDPDFTRSQDVDQLRDIKECLWFMLEVLMTKNENNSHAFMKKMAENIKLTRDAQSPDESKTNEKLYTVCDVALCVINSKSALCNADSPKDPVLPMKFFTQPEKDFCNDKSYISEETRVLLLTGKPKPAGVLGAVNKPLSATGRKPYVRSTGTETGSNINVNSELNPSTGNRSREQSSEAAETGVSENEENPVRIISVTPVKNIDPVKNKEINSDQATQGNISSDRGKKRTVTAAGAENIQQKTDEKVDESGPPAPSKPRRGRRPKSESQGNATKNDDLNKPINKGRKRAAVGQESPGGLEAGNAKAPKLQDLAKKAAPAERQIDLQR
binds |  | binds | RAD21 (protein, UniProt O60216 1-631) MFYAHFVLSKRGPLAKIWLAAHWDKKLTKAHVFECNLESSVESIISPKVKMALRTSGHLLLGVVRIYHRKAKYLLADCNEAFIKIKMAFRPGVVDLPEENREAAYNAITLPEEFHDFDQPLPDLDDIDVAQQFSLNQSRVEEITMREEVGNISILQENDFGDFGMDDREIMREGSAFEDDDMLVSTTTSNLLLESEQSTSNLNEKINHLEYEDQYKDDNFGEGNDGGILDDKLISNNDGGIFDDPPALSEAGVMLPEQPAHDDMDEDDNVSMGGPDSPDSVDPVEPMPTMTDQTTLVPNEEEAFALEPIDITVKETKAKRKRKLIVDSVKELDSKTIRAQLSDYSDIVTTLDLAPPTKKLMMWKETGGVEKLFSLPAQPLWNNRLLKLFTRCLTPLVPEDLRKRRKGGEADNLDEFLKEFENPEVPREDQQQQHQQRDVIDEPIIEEPSRLQESVMEASRTNIDESAMPPPPPQGVKRKAGQIDPEPVMPPQQVEQMEIPPVELPPEEPPNICQLIPELELLPEKEKEKEKEKEDDEEEEDEDASGGDQDQEERRWNKRTQQMLHGLQRALAKTGAESISLLELCRNTNRKQAAAKFYSFLVLKKQQAIELTQEEPYSDIIATPGPRFHII
binds |  |  | PDS5B (protein, UniProt Q9NTI5 1-1447) MAHSKTRTNDGKITYPPGVKEISDKISKEEMVRRLKMVVKTFMDMDQDSEEEKELYLNLALHLASDFFLKHPDKDVRLLVACCLADIFRIYAPEAPYTSPDKLKDIFMFITRQLKGLEDTKSPQFNRYFYLLENIAWVKSYNICFELEDSNEIFTQLYRTLFSVINNGHNQKVHMHMVDLMSSIICEGDTVSQELLDTVLVNLVPAHKNLNKQAYDLAKALLKRTAQAIEPYITNFFNQVLMLGKTSISDLSEHVFDLILELYNIDSHLLLSVLPQLEFKLKSNDNEERLQVVKLLAKMFGAKDSELASQNKPLWQCYLGRFNDIHVPIRLECVKFASHCLMNHPDLAKDLTEYLKVRSHDPEEAIRHDVIVSIVTAAKKDILLVNDHLLNFVRERTLDKRWRVRKEAMMGLAQIYKKYALQSAAGKDAAKQIAWIKDKLLHIYYQNSIDDRLLVERIFAQYMVPHNLETTERMKCLYYLYATLDLNAVKALNEMWKCQNLLRHQVKDLLDLIKQPKTDASVKAIFSKVMVITRNLPDPGKAQDFMKKFTQVLEDDEKIRKQLEVLVSPTCSCKQAEGCVREITKKLGNPKQPTNPFLEMIKFLLERIAPVHIDTESISALIKQVNKSIDGTADDEDEGVPTDQAIRAGLELLKVLSFTHPISFHSAETFESLLACLKMDDEKVAEAALQIFKNTGSKIEEDFPHIRSALLPVLHHKSKKGPPRQAKYAIHCIHAIFSSKETQFAQIFEPLHKSLDPSNLEHLITPLVTIGHIALLAPDQFAAPLKSLVATFIVKDLLMNDRLPGKKTTKLWVPDEEVSPETMVKIQAIKMMVRWLLGMKNNHSKSGTSTLRLLTTILHSDGDLTEQGKISKPDMSRLRLAAGSAIVKLAQEPCYHEIITLEQYQLCALAINDECYQVRQVFAQKLHKGLSRLRLPLEYMAICALCAKDPVKERRAHARQCLVKNINVRREYLKQHAAVSEKLLSLLPEYVVPYTIHLLAHDPDYVKVQDIEQLKDVKECLWFVLEILMAKNENNSHAFIRKMVENIKQTKDAQGPDDAKMNEKLYTVCDVAMNIIMSKSTTYSLESPKDPVLPARFFTQPDKNFSNTKNYLPPEMKSFFTPGKPKTTNVLGAVNKPLSSAGKQSQTKSSRMETVSNASSSSNPSSPGRIKGRLDSSEMDHSENEDYTMSSPLPGKKSDKRDDSDLVRSELEKPRGRKKTPVTEQEEKLGMDDLTKLVQEQKPKGSQRSRKRGHTASESDEQQWPEEKRLKEDILENEDEQNSPPKKGKRGRPPKPLGGGTPKEEPTMKTSKKGSKKKSGPPAPEEEEEEERQSGNTEQKSKSKQHRVSRRAQQRAESPESSAIESTQSTPQKGRGRPSKTPSPSQPKKNVRVGRSKQAATKENDSSEEVDVFQGSSPVDDIPQEETEEEEVSTVNVRRRSAKRERR
